Positions count from the first letter of the chain named. Results are given in words; binding and its absence hold for the method and conditions named. In cells and extracts the contact can be indirect. A result given as binding can be weak or reduced; the word gives no strength.

In assay [1] the target is T1, Mouse OFD1, wild type (mouse) (UniProt Q80Z25).
T1 sequence: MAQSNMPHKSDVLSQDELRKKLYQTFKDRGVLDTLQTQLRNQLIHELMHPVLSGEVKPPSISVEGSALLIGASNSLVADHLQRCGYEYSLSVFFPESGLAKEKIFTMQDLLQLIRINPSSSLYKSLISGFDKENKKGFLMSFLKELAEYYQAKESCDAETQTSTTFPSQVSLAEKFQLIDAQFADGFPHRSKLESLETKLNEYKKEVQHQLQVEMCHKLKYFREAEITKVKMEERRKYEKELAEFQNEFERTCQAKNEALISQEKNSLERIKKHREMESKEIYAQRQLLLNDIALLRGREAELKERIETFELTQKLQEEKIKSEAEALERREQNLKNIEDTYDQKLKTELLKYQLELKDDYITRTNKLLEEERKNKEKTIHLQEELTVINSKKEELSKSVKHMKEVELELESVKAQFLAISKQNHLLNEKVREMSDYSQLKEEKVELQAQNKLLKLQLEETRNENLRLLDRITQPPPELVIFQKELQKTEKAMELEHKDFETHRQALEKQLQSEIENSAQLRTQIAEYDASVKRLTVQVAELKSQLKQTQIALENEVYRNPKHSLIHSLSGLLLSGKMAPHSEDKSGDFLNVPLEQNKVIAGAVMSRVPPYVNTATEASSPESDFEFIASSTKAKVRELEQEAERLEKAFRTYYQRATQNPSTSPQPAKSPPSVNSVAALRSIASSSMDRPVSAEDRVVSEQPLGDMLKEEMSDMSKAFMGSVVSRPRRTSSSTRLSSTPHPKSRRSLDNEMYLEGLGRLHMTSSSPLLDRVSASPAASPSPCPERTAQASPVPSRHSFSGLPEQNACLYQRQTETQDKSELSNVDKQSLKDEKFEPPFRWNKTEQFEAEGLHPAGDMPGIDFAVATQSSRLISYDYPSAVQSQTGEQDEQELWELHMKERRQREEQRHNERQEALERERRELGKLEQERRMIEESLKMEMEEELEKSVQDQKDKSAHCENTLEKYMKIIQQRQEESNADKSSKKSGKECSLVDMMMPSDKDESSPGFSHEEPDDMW
The assay is described as follows: co-IP; OFD1 mutants co-expressed with TRAPPC8 or TRAPPC12; IP efficiency as ratio of immunoprecipitated TRAPPC8/OFD1 or TRAPPC12/OFD1; cell line and IP antibody not stated for this panel.

The target of another assay is T2, Mouse OFD1 G139S (mouse) (UniProt Q80Z25).
T2 sequence: T1 sequence with G137S
Described as above.

Take NTAP-tagged TRAPPC8 (mouse): the binding entry (in assay [1]; in the assay with Mouse OFD1 G139S (mouse)) was “binds” each time.

The values above are taken from paper PMC7090148 (2020).
